Assay: Yellowing observed and odor manually evaluated after curing
Conditions: for Odor after curing: manually evaluated; for Yellowing after curing: observed

Structure (SMILES) | Odor after curing | Yellowing after curing
CC(C)(C(=O)c1ccc(-c2ccccc2)cc1)N1CCOCC1 [2-methyl-1-(4-biphenyl)-2-morpholinyl-1-acetone] | No | No
CCCCC1(CCCC)c2ccccc2-c2ccc(C(=O)C(C)(C)N3CCOCC3)cc21 [2-methyl-1-(2-(9,9-dibutylfluorenyl))-2-(N-morpholinyl)-1-acetone] | No | No

Source: US11560362B2, “Dibutylfluorene derivative and application thereof as photoinitiator” (HUI ZHOU HUAHONG NEW MATERIAL CO., LTD., priority 2017, dated 2023)
